This note sets out measurements from US10064928B2, “Peptides and combination of peptides for use in immunotherapy against CLL and other cancers” (IMMATICS BIOTECHNOLOGIES GMBH, priority 2015, dated 2018).

This series relates to other tumor types (e.g. non-Hodgkin lymphoma, lung cancer). In words: Presentation of the peptides on additional tumor types (LC-MS, Tables 4A/4B, FIG. 1). The arrangement: species or system human. The settings on record: for Other relevant organs/diseases: Table 4A: additional tumor types where the peptide was over-presented on more than 5% of the measured tumor samples, or presented on more than 5% with ratio of geometric means tumor vs normal tissues larger than 3; for Additional Entities: Table 4B: additional tumour types with over-presentation (including specific presentation) on more than 5% of the measured tumour samples, or presentation on more than 5% with ratio of geometric means tumour vs normal tissues larger than 3, extended normal tissue panel.

With “156 (SLNIGDVQL; listed as Homo sapiens) [compound 156]”, the Other relevant organs/diseases entry is “NHL” and the “Additional Entities” value is on record as “AML”.

In the case of “295 (ALLQKLQQL; listed as Homo sapiens) [compound 295]”, the Other relevant organs/diseases result is given as “NHL”.

In the case of “288 (GLAESTGLLAV; listed as Homo sapiens) [compound 288]”, the Other relevant organs/diseases entry is “NHL”.

As for “335 (YLYQEQYFI; listed as Homo sapiens) [compound 335]”, the Other relevant organs/diseases entry is “SCLC, NHL, AML, Urinary bladder cancer” and the “Additional Entities” value is recorded as “CRC, Brain Cancer, Gallbladder Cancer, CCC, NSCLC, UterineCancer”.

As for “381 (YLLEENKIKL; listed as Homo sapiens) [compound 381]”, the Other relevant organs/diseases entry was “NHL”.

On to “376 (VLYNQRVEEI; listed as Homo sapiens) [compound 376]”, for which the Other relevant organs/diseases result is given as “Urinary bladder cancer”.

For “247 (KLKDRLPSI; listed as Homo sapiens) [compound 247]”, the Other relevant organs/diseases entry is on record as “NHL” and the “Additional Entities” value is “HCC”.

On to “325 (TLENGVPCV; listed as Homo sapiens) [compound 325]”, for which the Other relevant organs/diseases entry is “NHL”.

Consider “42 (FLEEGGVVTV; listed as Homo sapiens) [compound 42]”, for which the Other relevant organs/diseases result was “NHL, Melanoma” and the “Additional Entities” value is listed as “SCLC, AML”.

With “326 (VLAFLVHEL; listed as Homo sapiens) [compound 326]”, the “Additional Entities” value is “Esophageal Cancer, NSCLC, RCC”.

As to “230 (FLQDSKVIFV; listed as Homo sapiens) [compound 230]”, the Other relevant organs/diseases entry is “NHL”.

“293 (ALDIMIPMV; listed as Homo sapiens) [compound 293]”: the “Additional Entities” value is recorded as “AML, CRC, Brain Cancer, Gallbladder Cancer, CCC, HNSCC, Melanoma, NHL, NSCLC, OC, Brain Cancer, RCC, SCLC, Urinary Bladder Cancer, Uterine Cancer”.

In the case of “67 (GLDDVTVEV; listed as Homo sapiens) [compound 67]”, the Other relevant organs/diseases result is “HCC, NHL, Melanoma, Esophageal Cancer, OC, Gallbladder Cancer, Bile Duct Cancer” and the “Additional Entities” value is given as “AML”.

As for “152 (SLIRILQTI; listed as Homo sapiens) [compound 152]”, the Other relevant organs/diseases result is given as “HCC” and the “Additional Entities” value was “SCLC”.

As to “151 (SLFDSAYGA; listed as Homo sapiens) [compound 151]”, the Other relevant organs/diseases result is “AML”.

Regarding “223 (ALWVSQPPEI; listed as Homo sapiens) [compound 223]”, the Other relevant organs/diseases result is “NHL”.

For “87 (HQIEAVDGEEL; listed as Homo sapiens) [compound 87]”, the Other relevant organs/diseases entry is “GC, NHL, Esophageal Cancer”.

As to “159 (SLQEEKLIYV; listed as Homo sapiens) [compound 159]”, the Other relevant organs/diseases entry is given as “Brain Cancer, NHL, MCC, Melanoma, Esophageal Cancer, Urinary bladder cancer” and the “Additional Entities” value is reported as “HNSCC”.

Regarding “111 (KLWNVAAPLYL; listed as Homo sapiens) [compound 111]”, the “Additional Entities” value was “Melanoma”.

Take “233 (GIIDINVRL; listed as Homo sapiens) [compound 233]”: the Other relevant organs/diseases result is “PC, NHL, Melanoma, Esophageal Cancer, Urinary bladder cancer, Uterine Cancer, Gallbladder Cancer, Bile Duct Cancer”.

For the substance “110 (LLFDHLEPMEL; listed as Homo sapiens) [compound 110]”, the Other relevant organs/diseases result was “NHL”.

“313 (LMADLEGLHL; listed as Homo sapiens) [compound 313]”: the Other relevant organs/diseases result is “Melanoma, Urinary bladder cancer” and the “Additional Entities” value is “Uterine Cancer, AML”.

In the case of “279 (YMAPEVVEA; listed as Homo sapiens) [compound 279]”, the “Additional Entities” value is “HNSCC, NHL, NSCLC, SCLC, Uterine Cancer”.

Regarding “333 (VTLEFPQLIRV; listed as Homo sapiens) [compound 333]”, the Other relevant organs/diseases result was “SCLC, HCC, NHL” and the “Additional Entities” value is given as “BRCA”.

Regarding “180 (LLKDGPEIGL; listed as Homo sapiens) [compound 180]”, the Other relevant organs/diseases entry is listed as “NHL”.

As to “SEQ ID NO.: 3 (VIAELPPKV; listed as Homo sapiens)”, for the setting “positive/measured samples”, the “additionally detected on lung cancers” value is recorded as 1/90 and the “additionally detected on non-Hodgkin lymphoma samples” value is 5/21.

Turning to “222 (ALWELSLKI; listed as Homo sapiens) [compound 222]”, the Other relevant organs/diseases result was “NHL”.

Consider “173 (TVIENIHTI; listed as Homo sapiens) [compound 173]”, for which the “Additional Entities” value is on record as “CRC, HCC, Melanoma, NHL, NSCLC, OC, Esophageal Cancer, GC, RCC”.

“216 (WLAGDVPAA; listed as Homo sapiens) [compound 216]”: the Other relevant organs/diseases entry was “SCLC, NHL” and the “Additional Entities” value is reported as “AML, HNSCC”.

Turning to “274 (VLLEYHIAYL; listed as Homo sapiens) [compound 274]”, the Other relevant organs/diseases entry is reported as “NSCLC, SCLC, HCC, NHL, Urinary bladder cancer” and the “Additional Entities” value is reported as “Melanoma, HNSCC”.

Take “46 (YIIDSAQAV; listed as Homo sapiens) [compound 46]”: the Other relevant organs/diseases result is “NHL”.

Turning to “161 (SMDDGMINV; listed as Homo sapiens) [compound 161]”, the Other relevant organs/diseases result is reported as “CRC, NHL, Gallbladder Cancer, Bile Duct Cancer” and the “Additional Entities” value is listed as “SCLC, Melanoma, Uterine Cancer, AML, HNSCC”.

With “150 (SLFDQPLSII; listed as Homo sapiens) [compound 150]”, the Other relevant organs/diseases entry was “NHL”.

As to “321 (RLLEFELAQL; listed as Homo sapiens) [compound 321]”, the Other relevant organs/diseases result is “SCLC, CRC, NHL, OC” and the “Additional Entities” value is recorded as “Brain Cancer, PrC, Uterine Cancer, AML, HNSCC”.

For “272 (VLDELPPLI; listed as Homo sapiens) [compound 272]”, the Other relevant organs/diseases result was “SCLC, NHL” and the “Additional Entities” value is recorded as “BRCA, Uterine Cancer, HNSCC”.

On to “369 (RLLDLENSLLGL; listed as Homo sapiens) [compound 369]”, for which the Other relevant organs/diseases result was “AML”.

“196 (YLLLQTYVL; listed as Homo sapiens) [compound 196]”: the Other relevant organs/diseases result was “NHL”.

In the case of “269 (TLTDEQFLV; listed as Homo sapiens) [compound 269]”, the Other relevant organs/diseases result was “NHL, AML” and the “Additional Entities” value is “BRCA”.

On to “296 (FIAPTGHSL; listed as Homo sapiens) [compound 296]”, for which the Other relevant organs/diseases entry is “SCLC, NHL, AML, BRCA”.

“184 (VLSHNLYTV; listed as Homo sapiens) [compound 184]”: the “Additional Entities” value was “NHL”.

In the case of “324 (SLYSALQQA; listed as Homo sapiens) [compound 324]”, the Other relevant organs/diseases entry is listed as “NHL” and the “Additional Entities” value is “SCLC, Uterine Cancer, AML”.

Regarding “253 (NLWSVDGEVTV; listed as Homo sapiens) [compound 253]”, the Other relevant organs/diseases entry was “NHL”.

For “265 (TLLADDLEIKL; listed as Homo sapiens) [compound 265]”, the Other relevant organs/diseases result was “Esophageal Cancer”.

Regarding “246 (KLDETGVAL; listed as Homo sapiens) [compound 246]”, the Other relevant organs/diseases result is reported as “HCC, NHL, AML, Melanoma”.

For “373 (TLLADQGEIRV; listed as Homo sapiens) [compound 373]”, the Other relevant organs/diseases entry is “NHL, Melanoma”.

With “136 (NLDKLWTLV; listed as Homo sapiens) [compound 136]”, the Other relevant organs/diseases entry is listed as “GC, Esophageal Cancer” and the “Additional Entities” value was “AML, CRC, Melanoma, NSCLC, Brain Cancer”.

For the substance “38 (FIMEGGAMV; listed as Homo sapiens) [compound 38]”, the Other relevant organs/diseases entry is “NHL” and the “Additional Entities” value was “HNSCC”.

In the case of “207 (IIADLDTTIMFA; listed as Homo sapiens) [compound 207]”, the Other relevant organs/diseases result is listed as “SCLC, NHL, Melanoma, OC”.

As for “158 (SLPEAPLDV; listed as Homo sapiens) [compound 158]”, the Other relevant organs/diseases result is “NHL, AML, Uterine Cancer”.

Consider “26 (AVLLVLPLV; listed as Homo sapiens) [compound 26]”, for which the “Additional Entities” value was “NHL, NSCLC”.

As for “188 (VMGDIPAAV; listed as Homo sapiens) [compound 188]”, the Other relevant organs/diseases entry was “NHL, AML, Gallbladder Cancer, Bile Duct Cancer” and the “Additional Entities” value is recorded as “Urinary Bladder Cancer, HNSCC”.

For “361 (ILQEFESKL; listed as Homo sapiens) [compound 361]”, the “Additional Entities” value was “AML, NHL”.

For the substance “203 (ALLSSQLAL; listed as Homo sapiens) [compound 203]”, the “Additional Entities” value was “NHL, AML, NSCLC”.

With “55 (FMEPTLLML; listed as Homo sapiens) [compound 55]”, the Other relevant organs/diseases result is listed as “NHL, Urinary bladder cancer” and the “Additional Entities” value was “HNSCC”.

For “44 (FLLSINDFL; listed as Homo sapiens) [compound 44]”, the Other relevant organs/diseases result is “Melanoma” and the “Additional Entities” value is “RCC, Uterine Cancer, AML, NHL”.

Take “84 (GVMDVNTAL; listed as Homo sapiens) [compound 84]”: the “Additional Entities” value is on record as “AML, HCC, HNSCC, NHL, NSCLC, GC, RCC”.

For “370 (SIFASPESV; listed as Homo sapiens) [compound 370]”, the Other relevant organs/diseases entry is listed as “Melanoma, Esophageal Cancer, Urinary bladder cancer” and the “Additional Entities” value is recorded as “Uterine Cancer, Gallbladder Cancer, Bile Duct Cancer, AML, HNSCC”.

As to “SEQ ID NO.: 2 (ALHRPDVYL; listed as Homo sapiens)”, the “additionally detected on non-Hodgkin lymphoma samples” value (positive/measured samples) is reported as 2/21.
